Reference: PubChem BioAssay AID1159584 (Peter MacCallum Cancer Centre, 2016)
In all, the deposit lists about 18,000 reagents; below is a random part of them. Not stated in the record: the amount of reagent, the time to read-out.

Screen: 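Knock-downs that harm CDH1-null cells more than parental MCF10A cells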 (primary screen)
System: human MCF10A breast epithelial cells, parental and CDH1-null
Reagent: siRNA against human genes
Read-out: 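Cell viability by CellTiter-Glo ATP luminescence, each line scaled to the mean of mock wells across plates, then CDH1-null over parental ratio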
Direction: CDH1-null / parental viability ratio: higher = CDH1-null cells survive relatively better than parental; CDH1-null viability vs mock: higher = more viable CDH1-null cells; parental viability vs mock: higher = more viable parental cells

| target gene | CDH1-null / parental viability ratio | CDH1-null viability vs mock (fraction of mock) | parental viability vs mock (fraction of mock) |
| --- | --- | --- | --- |
| PLA2G4D | 0.7 | 0.4 | 0.57 |
| PKLR | 1.05 | 0.99 | 0.94 |
| IFNE | 1.33 | 0.32 | 0.24 |
| NSL1 | 0.93 | 0.78 | 0.84 |
| SLA2 | 0.92 | 0.74 | 0.8 |
| MPZL3 | 0.63 | 0.52 | 0.82 |
| CFAP52 | 1.07 | 0.92 | 0.86 |
| SRRM4 | 0.87 | 0.72 | 0.83 |
| SLC35F6 | 0.78 | 0.7 | 0.9 |
| UBR5 | 1.19 | 0.88 | 0.74 |
| ZNF260 | 0.95 | 0.8 | 0.84 |
| UGGT2 | 1.2 | 1.04 | 0.87 |
| PCDHB8 | 0.76 | 0.82 | 1.08 |
| GNL3L | 0.8 | 0.6 | 0.75 |
| ARMC1 | 0.96 | 1.01 | 1.05 |
| SLC12A4 | 1.32 | 1 | 0.76 |
| SLC15A4 | 1.15 | 1.06 | 0.92 |
| HCRT | 1.11 | 0.88 | 0.79 |
| ZC2HC1A | 1.02 | 0.52 | 0.51 |
| SPTSSA | 1.16 | 1.04 | 0.9 |
| AGO4 | 1.13 | 0.79 | 0.7 |
| NPR1 | 0.82 | 0.74 | 0.9 |
| BPHL | 0.78 | 0.58 | 0.74 |
| EML1 | 1.07 | 0.96 | 0.9 |
| FDCSP | 1.07 | 0.81 | 0.76 |
| NINJ2 | 1.17 | 0.62 | 0.53 |
| TPST1 | 0.79 | 0.74 | 0.94 |
| LEKR1 | 1.07 | 0.64 | 0.6 |
| TRIM49 | 0.9 | 0.77 | 0.86 |
| ZNF835 | 0.63 | 0.74 | 1.18 |
| TMEM220 | 1.08 | 0.7 | 0.65 |
| CHMP2B | 1.19 | 0.62 | 0.52 |
| TNFSF18 | 1.18 | 0.78 | 0.66 |
| GUCD1 | 0.79 | 0.38 | 0.48 |
| FLT3LG | 0.89 | 0.84 | 0.94 |
| LRRC37A2 | 0.99 | 0.78 | 0.79 |
| BLM | 1.04 | 0.96 | 0.92 |
| KRT28 | 0.97 | 0.9 | 0.93 |
| F13B | 0.88 | 0.9 | 1.02 |
| CAPZB | 0.86 | 0.55 | 0.64 |
| PLEKHG3 | 0.77 | 0.3 | 0.39 |
| TMEM184B | 1.04 | 0.94 | 0.9 |
| UBFD1 | 0.91 | 0.88 | 0.97 |
| METTL13 | 0.91 | 0.96 | 1.05 |
| TPT1P8 | 1.22 | 0.88 | 0.72 |
| PRSS35 | 1.08 | 0.94 | 0.87 |
| TMEM150A | 1.05 | 0.82 | 0.78 |
| MRPS10 | 1.2 | 1.16 | 0.97 |
| CLNS1A | 1.38 | 0.88 | 0.64 |
| TPD52L3 | 0.71 | 0.54 | 0.76 |
| TPRX1 | 0.96 | 0.67 | 0.7 |
| FBXW8 | 0.98 | 0.89 | 0.91 |
| GPD1L | 0.9 | 0.43 | 0.48 |
| HECTD1 | 1.02 | 0.86 | 0.84 |
| TPRG1L | 1.04 | 0.56 | 0.54 |
| CCDC17 | 1.12 | 0.74 | 0.66 |
| SLC38A1 | 0.55 | 0.53 | 0.96 |
| STT3B | 1.15 | 0.9 | 0.78 |
| DBR1 | 1.14 | 0.66 | 0.58 |
| HLA-DQB1 | 1.12 | 0.91 | 0.81 |
| BOC | 0.99 | 0.8 | 0.81 |
| C21orf91 | 0.84 | 0.94 | 1.12 |
| PPARGC1B | 0.89 | 0.66 | 0.74 |
| SMU1 | 0.67 | 0.12 | 0.18 |
| KDM5C | 0.91 | 0.82 | 0.9 |
| RBM5 | 1.07 | 0.81 | 0.76 |
| TTLL9 | 0.8 | 0.48 | 0.6 |
| RFX6 | 1.07 | 1.03 | 0.96 |

Reformatted: 10 of the entries above
target gene	CDH1-null / parental viability ratio	CDH1-null viability vs mock (fraction of mock)	parental viability vs mock (fraction of mock)
PKLR	1.05	0.99	0.94
IFNE	1.33	0.32	0.24
NSL1	0.93	0.78	0.84
SLA2	0.92	0.74	0.8
MPZL3	0.63	0.52	0.82
CFAP52	1.07	0.92	0.86
SRRM4	0.87	0.72	0.83
SLC35F6	0.78	0.7	0.9
UBR5	1.19	0.88	0.74
ZNF260	0.95	0.8	0.84
